# Data from PMC5996148.
# Several values for one entry are separate records, joined by “and”; a condition that tells them apart may be missing. Equal entries are not always repeated. Some of the results follow. For some assays here: The source does not settle which construct or isoform was used.
# Key:
# Assay in all cases: protein microarray (ProtoArray v5.0), streptavidin-Alexa Fluor 647
# Conditions in all cases: 3'-biotin; 20 mM Tris (pH 7.5), 5 mM MgCl2, 100 mM KCl, 0.1% Tween-20, A/T-rich and random oligonucleotide blockers; temperature not stated; high values mean tight binding
# ACP1 (human) = test system: ACP1 (human)
# ACPP (human) = test system: ACPP (human)
# ACSL5 (human) = test system: ACSL5 (human)
# ACTN2 (human) = test system: ACTN2 (human)
# ACTN4 (human) = test system: ACTN4 (human)
# ACY1 (human) = test system: ACY1 (human)
# ACY3 (human) = test system: ACY3 (human)
# ADD1 (human) = test system: ADD1 (human)
# ADI1 (human) = test system: ADI1 (human)
# [1] = test system: ADP-ribosylation factor-like protein 6-interacting protein 6 (human)
# ADPRHL1 (human) = test system: ADPRHL1 (human)
# ADRB2 = ADRB2 (UniProt P07550)
# ADRM1 (human) = test system: ADRM1 (human)
# AFG3L1 (human) = test system: AFG3L1 (human)
# AHCY (human) = test system: AHCY (human)
# AHSG (human) = test system: AHSG (human)
# AIF1 (human) = test system: AIF1 (human)
# AK3 (human) = test system: AK3 (human)
# AK3L1 (human) = test system: AK3L1 (human)
# AKR1B10 (human) = test system: AKR1B10 (human)
sequence,measurement,setting,value
GGTGACAGGGGTATGGGGAGGGG [G4-2 biotinylated (Ct1)],binding signal,ACP1 (human),-0.389 z-score
same,binding signal,ACPP (human),-0.391 z-score
same,binding signal,ACSL5 (human),-0.37 z-score
same,binding signal,ACTN2 (human),-0.391 z-score
same,binding signal,ACTN4 (human),-0.384 z-score
same,binding signal,ACY1 (human),-0.394 z-score
same,binding signal,ACY3 (human),-0.389 z-score
same,binding signal,ADD1 (human),-0.402 z-score
same,binding signal,ADI1 (human),-0.401 z-score
same,binding signal,[1],-0.358 z-score
same,binding signal,ADPRHL1 (human),-0.389 z-score
same,binding signal,ADRB2,-0.372 z-score
same,binding signal,ADRM1 (human),-0.396 z-score
same,binding signal,AFG3L1 (human),-0.388 z-score
same,binding signal,AHCY (human),-0.373 z-score
same,binding signal,AHSG (human),-0.364 z-score
same,binding signal,AIF1 (human),-0.401 z-score and -0.372 z-score
same,binding signal,AK3 (human),-0.376 z-score
same,binding signal,AK3L1 (human),-0.382 z-score
same,binding signal,AKR1B10 (human),-0.371 z-score

# Looked up one by one from the entries so far (2):
sequence,measurement,setting,value
GGTGACAGGGGTATGGGGAGGGG [G4-2 biotinylated (Ct1)],binding signal,ADRM1 (human),-0.396 z-score
same,binding signal,AHCY (human),-0.373 z-score
